The experiment deals with T1, GFP-tagged FATE1 (Fetal and Adult Testis Expressed 1), full-length wild type (human) (UniProt Q969F0).
T1 sequence: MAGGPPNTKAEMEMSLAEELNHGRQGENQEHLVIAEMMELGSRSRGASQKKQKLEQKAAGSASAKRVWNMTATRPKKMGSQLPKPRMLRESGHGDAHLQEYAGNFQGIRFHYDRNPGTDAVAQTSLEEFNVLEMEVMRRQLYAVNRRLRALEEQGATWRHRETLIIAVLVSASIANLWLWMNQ
Put plainly: co-IP.

Protein sequences, listed by entry. Tags and fused reporters are not part of them. Lines headed by an entry give the natural chain unless they say otherwise; changes in a name come on top.
UniProt O00429: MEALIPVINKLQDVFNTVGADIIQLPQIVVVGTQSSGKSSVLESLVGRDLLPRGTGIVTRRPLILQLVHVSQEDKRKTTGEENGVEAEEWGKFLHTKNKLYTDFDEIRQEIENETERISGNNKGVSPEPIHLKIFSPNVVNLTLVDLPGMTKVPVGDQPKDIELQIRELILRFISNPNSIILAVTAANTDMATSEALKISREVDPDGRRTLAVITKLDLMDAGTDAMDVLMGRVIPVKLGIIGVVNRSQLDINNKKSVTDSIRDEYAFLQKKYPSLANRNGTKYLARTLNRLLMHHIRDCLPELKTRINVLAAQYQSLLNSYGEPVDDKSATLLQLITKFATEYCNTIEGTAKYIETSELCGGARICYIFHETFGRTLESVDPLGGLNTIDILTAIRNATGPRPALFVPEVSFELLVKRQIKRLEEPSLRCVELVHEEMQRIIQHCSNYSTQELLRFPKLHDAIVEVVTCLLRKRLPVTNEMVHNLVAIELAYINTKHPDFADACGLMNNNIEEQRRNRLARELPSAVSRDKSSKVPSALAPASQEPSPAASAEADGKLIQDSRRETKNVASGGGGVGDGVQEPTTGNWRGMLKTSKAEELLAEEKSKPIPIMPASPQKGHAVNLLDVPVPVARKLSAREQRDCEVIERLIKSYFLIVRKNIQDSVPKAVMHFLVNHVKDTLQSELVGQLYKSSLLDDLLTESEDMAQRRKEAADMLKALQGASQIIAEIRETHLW

Results are given in words; binding and its absence hold for the method and conditions named. In cells and extracts the contact can be indirect. Some entries that bind do so weakly or less than the wild type. Where a sequence is shown, tags or fusion partners need not be part of it.

In the case of “RFP-tagged dominant-negative, GTPase-deficient Drp1 mutant (mCherry-Drp1(K38A)) (from UniProt O00429 1-736)”, the binding entry is given as “binds weakly”.

The record behind these values is doi:10.1101/2025.08.18.670752.
